Test results from PMC5919733.
No constants are given. Whether binding was seen depends on the method and setting. In cells and extracts the contact can be indirect. Some entries that bind do so weakly or less than the wild type.

Protein sequences, listed by entry. Tags and fused reporters are not part of them.
UniProt Q61188: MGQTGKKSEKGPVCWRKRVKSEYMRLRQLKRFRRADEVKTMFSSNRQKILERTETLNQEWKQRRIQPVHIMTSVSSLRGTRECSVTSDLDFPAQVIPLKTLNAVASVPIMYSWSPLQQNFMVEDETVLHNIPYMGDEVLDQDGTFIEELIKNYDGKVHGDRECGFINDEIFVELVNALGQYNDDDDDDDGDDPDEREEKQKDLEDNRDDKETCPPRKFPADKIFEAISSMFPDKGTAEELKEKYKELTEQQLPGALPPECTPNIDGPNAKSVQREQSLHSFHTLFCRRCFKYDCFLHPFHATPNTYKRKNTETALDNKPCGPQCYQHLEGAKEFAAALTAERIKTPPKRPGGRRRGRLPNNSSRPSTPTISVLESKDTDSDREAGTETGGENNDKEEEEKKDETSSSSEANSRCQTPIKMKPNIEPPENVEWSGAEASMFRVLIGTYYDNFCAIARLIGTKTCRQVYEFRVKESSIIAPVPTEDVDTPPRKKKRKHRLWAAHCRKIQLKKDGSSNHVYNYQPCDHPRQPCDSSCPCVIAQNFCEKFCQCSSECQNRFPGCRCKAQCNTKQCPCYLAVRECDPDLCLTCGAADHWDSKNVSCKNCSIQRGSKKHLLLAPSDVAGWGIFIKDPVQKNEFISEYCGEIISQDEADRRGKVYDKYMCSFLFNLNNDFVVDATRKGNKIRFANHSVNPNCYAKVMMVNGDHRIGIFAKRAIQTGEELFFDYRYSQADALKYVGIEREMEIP
UniProt Q02248: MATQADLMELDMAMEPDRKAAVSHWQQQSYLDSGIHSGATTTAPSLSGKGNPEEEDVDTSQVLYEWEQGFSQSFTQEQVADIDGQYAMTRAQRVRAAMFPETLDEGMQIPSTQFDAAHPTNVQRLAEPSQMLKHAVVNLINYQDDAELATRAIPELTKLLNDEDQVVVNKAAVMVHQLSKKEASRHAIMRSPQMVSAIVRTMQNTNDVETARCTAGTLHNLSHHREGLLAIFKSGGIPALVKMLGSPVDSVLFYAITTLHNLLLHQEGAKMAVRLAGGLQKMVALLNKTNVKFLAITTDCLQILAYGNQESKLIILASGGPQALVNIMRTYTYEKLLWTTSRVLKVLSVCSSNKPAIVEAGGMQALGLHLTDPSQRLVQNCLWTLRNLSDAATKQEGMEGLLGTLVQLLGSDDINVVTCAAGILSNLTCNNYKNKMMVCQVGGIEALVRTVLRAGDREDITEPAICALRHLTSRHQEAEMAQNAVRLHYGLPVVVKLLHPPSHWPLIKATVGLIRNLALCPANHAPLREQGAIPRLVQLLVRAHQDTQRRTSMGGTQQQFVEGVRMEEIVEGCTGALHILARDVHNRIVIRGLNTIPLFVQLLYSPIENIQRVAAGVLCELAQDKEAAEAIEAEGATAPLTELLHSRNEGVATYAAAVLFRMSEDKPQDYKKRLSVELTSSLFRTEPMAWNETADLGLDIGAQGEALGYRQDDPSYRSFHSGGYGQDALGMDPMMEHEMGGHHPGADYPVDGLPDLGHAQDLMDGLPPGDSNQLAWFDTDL
UniProt Q80U70: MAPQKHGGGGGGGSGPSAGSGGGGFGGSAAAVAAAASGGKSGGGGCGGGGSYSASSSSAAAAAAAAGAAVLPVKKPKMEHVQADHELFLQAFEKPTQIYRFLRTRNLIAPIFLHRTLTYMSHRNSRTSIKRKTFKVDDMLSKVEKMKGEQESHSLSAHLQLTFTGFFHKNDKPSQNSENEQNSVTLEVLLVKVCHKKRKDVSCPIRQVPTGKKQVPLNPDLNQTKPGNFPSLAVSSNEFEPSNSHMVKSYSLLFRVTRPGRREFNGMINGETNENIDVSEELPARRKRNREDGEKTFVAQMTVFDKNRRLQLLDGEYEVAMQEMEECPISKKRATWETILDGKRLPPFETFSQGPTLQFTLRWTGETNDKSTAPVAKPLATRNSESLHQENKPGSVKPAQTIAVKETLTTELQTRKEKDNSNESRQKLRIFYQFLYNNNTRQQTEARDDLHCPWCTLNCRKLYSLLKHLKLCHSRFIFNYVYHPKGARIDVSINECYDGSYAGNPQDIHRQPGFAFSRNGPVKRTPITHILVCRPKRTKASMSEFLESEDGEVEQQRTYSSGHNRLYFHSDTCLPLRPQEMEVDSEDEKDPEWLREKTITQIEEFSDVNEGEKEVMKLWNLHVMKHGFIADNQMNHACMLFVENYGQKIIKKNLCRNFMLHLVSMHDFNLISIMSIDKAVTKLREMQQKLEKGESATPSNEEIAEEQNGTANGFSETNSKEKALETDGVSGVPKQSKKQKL

What was measured:
[1] = molecular target: Enhancer of Zeste homolog 2 (EZH2) (mouse (endogenous in E13.5 cranial mesenchyme)) (UniProt Q61188); assay: co-IP; endogenous proteins in lysate of PDGFRα-enriched E13.5 mouse cranial mesenchyme (50 mM Tris pH 7.5, 250 mM NaCl, 2 mM EGTA, 1% Triton X-100); antibody to nonphospho-β-catenin or EZH2 overnight at 4°, Protein G Dynabeads, washes with 300 mM NaCl, 0.2% NP40; Western blot; IgG as negative control
[2] = molecular target: β-catenin (mouse (endogenous in E13.5 cranial mesenchyme)) (UniProt Q02248); assay: as above

β-catenin (from UniProt Q02248 1-781)
binding [1]: binds

SUZ12 (from UniProt Q80U70 1-741)
binding [2]: binds

Enhancer of Zeste homolog 2 (EZH2) (from UniProt Q61188 1-746)
binding [2]: binds
